± gives the standard deviation. The entries are a selection whose mix differs from that of the whole data set. The uncertainty is large for many entries. The list shows a part of the results.

In test [1] the test system is MIWI (PIWIL1) piRISC loaded with L1MC piRNA (30 nt). The test can be described thus: pre-steady-state target cleavage rate (min^-1); higher = faster piRNA-guided slicing of the target. The note with it: guide: L1MC piRNA 5'p-UAACUAAAUACUAUGCAAGCUGUAGGUCCU; auxiliary factor: none (no GTSF1). The essentials:
(§1)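 Cleave-'n-Seq: 1 nM active affinity-purified piRISC with one synthetic guide and 0.1 nM transcribed, DNA-blocked target RNA library were mixed, with or without 500 nM GTSF1 partner protein, in HEPES–potassium acetate buffer at 33 °C for 0–8 or 0–960 min. Uncleaved targets were sequenced and normalised to depth and to weakly complementary targets, three trials were pooled, and k3 was capped at 0.0001 min^-1. The pre-steady-state cleavage rate was fitted […].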

For test [2], the system named is EfPiwi piRISC loaded with L1MC piRNA (26 nt). The test can be described thus: pre-steady-state target cleavage rate (min^-1); guide: L1MC piRNA 5'p-UAACUAAAUACUAUGCAAGCUGUAGG; MIWI and MILI are mouse PIWI proteins and EfPiwi is from a freshwater sponge; tags in brackets are library labels; higher = faster piRNA-guided slicing of the target. The procedure, abridged:
as §1

The mark [3] stands for this setting: auxiliary factor: 500 nM Ephydatia muelleri Gtsf1.

UCCUGGAUGUCGAUGCAUACUAAUUAGUUA: the “pre-steady-state target cleavage rate” value in test [1] was 0.000618 ± 0.0091; in test [2] (setting [3]) it was 0.000973 ± 0.0067.

Take UCCUGCUACAGCUUGCAAUGUAUUUAGAAA: the “pre-steady-state target cleavage rate” value in test [1] came out at 0.00119 ± 0.0052; in test [2] (setting [3]) it was 0.00108 ± 0.0048.

For UCCUGGAUGUGCUUGGAAAGUAUUUAGUUA, the “pre-steady-state target cleavage rate” value in test [1] turned out to be 0.00233 ± 0.0033; in test [2] (auxiliary factor: none (no Gtsf1)) it was 0.000499 ± 0.018.

Values taken from the supplement of paper PMC10338343.
